Consider 51 compounds from the supplement of paper PMC9135407.

For this assay, the system named is primary human hepatic stellate cells (donor 1). As to the kind of experiment: percent Bodipy-positive cells; higher = more lipid droplet accumulation. As to conditions: 48 h. The method, then:
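Primary lipid accumulation screen in primary human hepatic stellate cell myofibroblasts (donor 1, passage 8) in 384-well plates. 100 nL of library compound was pin-transferred into 30 µL medium in duplicate, and cells were treated for 48 h. The 'Scaled' score combines distance from plate baseline, toxicity and reproducibility penalties, and is normalised to nortriptyline (positive) and DMSO (negative) controls on each plate. A hit is defined as scaled >0.85 or among the top 3 wells per plate.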

The mark [1] stands for this setting: library stock concentration: 1 mM.
The mark [2] stands for this setting: library stock concentration: 10 mM.
Where [3] appears, read: library stock concentration: 9.2 mM.
Setting [4] is: library stock concentration: 3.33 mM.
The mark [5] stands for this setting: library stock concentration: 80 uM.

“And” between values parts separate entries of the source, which are not always exact repeats. Equal values may be shown once. Where a name gives a salt, the structure may show the parent alone. ± gives the standard deviation of the averaged measurements. The list shows a part of the results. Part of the spread comes from offsets between plates or batches.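 Culture-activated primary human stellate myofibroblasts, where regained lipid droplets signal inactivation. Value: share of Hoechst-counted cells above a per-plate Bodipy cutoff, in duplicate wells, with DMSO negative and nortriptyline positive controls on each plate. Hits: a control-normalized score above the plate's top-tenth-percentile nortriptyline wells, or one of a plate's three best wells. Final well concentrations are not given.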

`CC\C=C/C=C/C=C/C=C\CCCCCCCC(=O)O` [cis-Parinaric Acid]: under setting [1], the “percent Bodipy-positive cells” value worked out at 11.5 ± 0.18%.

In the case of `COc1cc(C(=O)NCCCCCC(=O)O)cc(OC)c1OC` [Capobenic acid], under “library stock concentration: 6.1 mM”, the “percent Bodipy-positive cells” value came out at 12.7 ± 3%.

Consider `c1ccc(-c2[nH]ncc2-c2ccnc3ccccc23)nc1`, for which the “percent Bodipy-positive cells” value reads like this: under setting [1], 8.04 ± 1.8%; under setting [2], 6.92 ± 3.2%.

Turning to `CC1=C(C(=O)O)N2C(=O)[C@@H](NC(=O)[C@H](N)C3=CCC=CC3)[C@H]2SC1` [Cephradine], the “percent Bodipy-positive cells” value (library stock concentration: 5.7 mM) was 2.07 ± 1.3%.

Consider `N[C@@H](CCC(=O)N[C@@H](CS)C(=O)NCC(=O)O)C(=O)O` [Glutathione], for which the “percent Bodipy-positive cells” value under setting [2] was determined as 31.7 ± 20%.

For `CCC1(c2ccccc2)NC(=O)N(C)C1=O` (stereo not drawn) [Mephenytoin], the “percent Bodipy-positive cells” value was 6.54 ± 0.93%. Also, under setting [3], the “percent Bodipy-positive cells” value came to 11.9 ± 5.5%.

In the case of `C=CC(=O)Nc1cc(Nc2nccc(-c3cn(C)c4ccccc34)n2)c(OC)cc1N(C)CCN(C)C`, the “percent Bodipy-positive cells” value under setting [2] was 98.8 ± 1.7%.

Turning to `C#Cc1cccc(Nc2ncnc3cc4c(cc23)OCCOCCOCCO4)c1` [Icotinib], the “percent Bodipy-positive cells” value by setting is: under setting [4], 14.5 ± 11%; under setting [2], 30.8 ± 11%.

As to `Cc1ccc(NCCCc2ccccc2)c(N)c1`, the “percent Bodipy-positive cells” value reads like this: under setting [4], 27.6 ± 12%; under setting [2], 38.1 ± 4.5%.

Regarding `CCc1c(C)[nH]c2c1C(=O)C(CN1CCOCC1)CC2` (stereo not drawn) [Moban], the “percent Bodipy-positive cells” value under setting [2] was 27.6 ± 12%.

As to `CCc1c(C)[nH]c2c1C(=O)C(CN1CCOCC1)CC2` (stereo not drawn) [Molindone hydrochloride], the “percent Bodipy-positive cells” value came to 10.6 ± 3.8%. Further, the “percent Bodipy-positive cells” value under setting [2] came to 32.2 ± 1.3%.

In the case of `NC(=O)CNCCC(c1ccccc1)c1ccccc1` [N-(3,3-Diphenylpropyl)glycinamide], under setting [2], the “percent Bodipy-positive cells” value came to 66.3 ± 17%.

For the compound `NC(=O)CNCCC(c1ccccc1)c1ccccc1` [N20C hydrochloride], the “percent Bodipy-positive cells” value under setting [2] turned out to be 34 ± 4.2%.

For the compound `CCCCC(CC)CCC(CC(C)C)OS(=O)(=O)O` (stereo not drawn), the “percent Bodipy-positive cells” value under setting [2] was found to be 29.9 ± 2.6%.

For `Cc1cc(C)c(-c2csc(NC(=O)c3ccccc3)n2)c(C)c1`, the “percent Bodipy-positive cells” value under setting [4] came out at 30.7 ± 4.3% and the “percent Bodipy-positive cells” value under setting [2] is 30.2 ± 2.5%.

For the compound `O=C(O)COCCN1CCN(C(c2ccccc2)c2ccc(Cl)cc2)CC1` (stereo not drawn) [Cetirizine], the “percent Bodipy-positive cells” value under setting [2] stood at 37.2 ± 15%.

As for `O=C(O)COCCN1CCN(C(c2ccccc2)c2ccc(Cl)cc2)CC1` (stereo not drawn) [Cetirizine DiHCl], the “percent Bodipy-positive cells” value reads like this: under setting [4], 10.3 ± 2.6%; under setting [2], 14.1 ± 1.8%.

With `O=C(O)COCCN1CCN(C(c2ccccc2)c2ccc(Cl)cc2)CC1` (stereo not drawn) [Cetirizine hydrochloride], the “percent Bodipy-positive cells” value under setting [2] amounted to 42.4 ± 8%.

With `O=C(O)COCCN1CCN(C(c2ccccc2)c2ccc(Cl)cc2)CC1` (stereo not drawn) [Cetirizine dihydrochloride], the “percent Bodipy-positive cells” value was 35.5 ± 9.1%.

With `N[C@@H]1CONC1=O` [D-Cycloserine], under setting [2], the “percent Bodipy-positive cells” value came to 53.8 ± 7.8%.

As for `N[C@@H]1CONC1=O` [D-cycloserine], the “percent Bodipy-positive cells” value is 8.27 ± 3.8%.

With `N[C@@H]1CONC1=O` [Cycloserine], under setting [2], the “percent Bodipy-positive cells” value is 24.3 ± 10%.

Turning to `Cn1cc(-c2cnn3c(N)c(Br)c([C@@H]4CCCNC4)nc23)cn1`, the “percent Bodipy-positive cells” value reads like this: under setting [4], 6.26 ± 4.1%; under setting [2], 66.1 ± 1%.

Consider `Cc1nnsc1C(=O)Nc1ccc(-n2nc(C(F)(F)F)cc2C(F)(F)F)cc1`, for which the “percent Bodipy-positive cells” value under setting [1] was determined as 18.9 ± 2.2%.

As for `CN1CCN(C2=Cc3ccccc3Oc3ccc(Cl)cc32)CC1.O=C(O)/C=C/C(=O)O`, under setting [2], the “percent Bodipy-positive cells” value came to 79 ± 4.9%.

For the compound `CCCCC(C)(C)[C@H](O)/C=C/[C@H]1C=CC(=O)[C@@H]1C/C=C\CCCC(=O)O` [16,16-dimethyl Prostaglandin A2], the “percent Bodipy-positive cells” value under setting [1] was determined as 14.8 ± 1.1%.

As for `C=CC(=O)Nc1cccc(Nc2nc(Nc3ccc(Oc4ccnc(C(=O)NC)c4)cc3)ncc2F)c1`, the “percent Bodipy-positive cells” value by setting is: under setting [4], 48.1 ± 2.3%; under setting [2], 77.6 ± 16%.

`CCCSc1nc(N[C@@H]2C[C@H]2c2ccc(F)c(F)c2)c2nnn([C@@H]3C[C@H](OCCO)[C@@H](O)[C@H]3O)c2n1` [Ticagrelor]: the “percent Bodipy-positive cells” value came out at 11.8 ± 6.9% under setting [4] and 60.9 ± 8.4% under setting [2].

On to `CC(=O)O[C@]1(C(C)=O)CC[C@H]2[C@@H]3C=C(Cl)C4=CC(=O)[C@@H]5C[C@@H]5[C@]4(C)[C@H]3CC[C@@]21C` [Cyproterone Acetate], for which the “percent Bodipy-positive cells” value under setting [4] was 10.6 ± 0.56% and the “percent Bodipy-positive cells” value under setting [2] was 17.1 ± 1.5%.

Turning to `CC(=O)O[C@]1(C(C)=O)CC[C@H]2[C@@H]3C=C(Cl)C4=CC(=O)[C@@H]5C[C@@H]5[C@]4(C)[C@H]3CC[C@@]21C` [Cyproterone acetate], the “percent Bodipy-positive cells” value is 13.4 ± 0.41%. Besides, for the setting “library stock concentration: 4.8 mM”, the “percent Bodipy-positive cells” value is 12.4% and 4.18%.

On to `O=C(O)C1CCCN(CCC=C(c2ccccc2)c2ccccc2)C1` (stereo not drawn), for which the “percent Bodipy-positive cells” value under setting [2] was 24.7% and 8.24%.

Regarding `CCCCC[C@H](O)/C=C/[C@@H]1[C@@H](C/C=C\CCCC(=O)NCC)[C@@H](O)C[C@H]1O` [Prostaglandin F2.alpha. ethyl amide], the “percent Bodipy-positive cells” value under setting [1] was 7.55 ± 0.52%.

In the case of `CC(C)c1cc(-c2n[nH]c(=O)n2-c2ccc3c(ccn3C)c2)c(O)cc1O` [Ganetespib], the “percent Bodipy-positive cells” value was 52.1 ± 5.2% under setting [5] and 62.2 ± 11% (library stock concentration: 400 uM).

Consider `CC(C)c1cc(-c2n[nH]c(=O)n2-c2ccc3c(ccn3C)c2)c(O)cc1O` [Ganetespib (STA-9090)], for which the “percent Bodipy-positive cells” value runs as follows: under setting [4], 73 ± 7.4%; under setting [2], 78.1 ± 5%.

Consider `Clc1ccc(CO/N=C(\Cn2ccnc2)c2ccc(Cl)cc2Cl)c(Cl)c1` [Oxiconazole nitrate], for which the “percent Bodipy-positive cells” value turned out to be 19.1 ± 5.4% (library stock concentration: 4.7 mM) and 51.2 ± 11% under setting [2].

Regarding `Clc1ccc(CO/N=C(\Cn2ccnc2)c2ccc(Cl)cc2Cl)c(Cl)c1`, the “percent Bodipy-positive cells” value under setting [2] is 93.3 ± 2.2%.

As for `COc1ccc(-c2ccc3ncc4c(c3c2)n(-c2ccc(N3CCNCC3)c(C(F)(F)F)c2)c(=O)n4C)cn1`, the “percent Bodipy-positive cells” value under setting [5] stood at 40.1 ± 9.9%; the “percent Bodipy-positive cells” value (library stock concentration: 2 mM) stood at 96.8 ± 2.2%; the “percent Bodipy-positive cells” value under setting [4] was found to be 92 ± 5.4%; the “percent Bodipy-positive cells” value under setting [2] was 12.5% and 20.9%.

Turning to `C#C[C@]1(OC(C)=O)CC[C@H]2[C@@H]3CCC4=CC(=NO)CC[C@@H]4[C@H]3CC[C@@]21CC` (mixture of isomers) [Norgestimate], the “percent Bodipy-positive cells” value (library stock concentration: 5.4 mM) was 13 ± 3.9%.

For `O=C(CCc1ccc(O)c(O)c1)N[C@@H](CC(=O)OCc1ccccc1)C(=O)OCc1ccccc1`, the “percent Bodipy-positive cells” value under setting [1] is 7.92 ± 0.73%.

For `Cl.O[Si](CCCN1CCCCC1)(c1ccc(F)cc1)C1CCCCC1` (stereo not drawn) [Hexahydro-sila-difenidol hydrochloride, p-fluoro analog], the “percent Bodipy-positive cells” value under setting [2] is 95.2 ± 2%.

As for `CC(C)n1cnc2c(NCc3ccccc3O)nc(NCCCO)nc21` [Cdk Inhibitor, p35], the “percent Bodipy-positive cells” value under setting [4] was 25.1 ± 1.3%.

For `Clc1ccc(C2(c3ccc(-c4cn[nH]c4)cc3)CCNCC2)cc1`, under setting [4], the “percent Bodipy-positive cells” value amounted to 99.1 ± 1.2%.

On to `O=C1c2ccccc2C(=O)C1c1ccc(Cl)cc1`, for which the “percent Bodipy-positive cells” value under setting [2] was 46.2 ± 1.2%.

On to `COc1ccc2cc([C@H](C)CO)ccc2c1` [Naproxol], for which the “percent Bodipy-positive cells” value runs as follows: under setting [3], 10.2 ± 7%; under setting [2], 28.5 ± 7.3%.

As to `CCCCCC1OC(O)CC1SC[C@H](NC(C)=O)C(=O)O` (stereo partly drawn) [4-hydroxy Nonenal Mercapturic Acid], the “percent Bodipy-positive cells” value under setting [1] came to 12.3 ± 2.9%.

Consider `N#CSc1cc(SC#N)c(N)nc1N`, for which the “percent Bodipy-positive cells” value came to 72.2 ± 4.8% under setting [4] and 99.71 ± 0.42% under setting [2].

As to `COc1cc2nc(N(C)CCCNC(=O)C3CCCO3)nc(N)c2cc1OC` (stereo not drawn) [Alfuzosin hydrochloride], the “percent Bodipy-positive cells” value amounted to 29.6 ± 12%. Moreover, the “percent Bodipy-positive cells” value under setting [2] stood at 59.3 ± 3.9%.

Regarding `COc1cc2nc(N(C)CCCNC(=O)C3CCCO3)nc(N)c2cc1OC` (stereo not drawn) [Alfuzosin HCl], the “percent Bodipy-positive cells” value is 7.44 ± 1.1% under setting [4] and 23.7 ± 2% under setting [2].

In the case of `COc1cc2nc(N(C)CCCNC(=O)C3CCCO3)nc(N)c2cc1OC` (stereo not drawn) [Alfluzosin], where the note is “library stock concentration: 5.1 mM”, the “percent Bodipy-positive cells” value amounted to 9.71 ± 0.5%.

Take `COc1cc2nc(N(C)CCCNC(=O)C3CCCO3)nc(N)c2cc1OC` (stereo not drawn): the “percent Bodipy-positive cells” value under setting [2] amounted to 11.7 ± 2%.

For `COc1cc2nc(N(C)CCCNC(=O)C3CCCO3)nc(N)c2cc1OC` (stereo not drawn) [Alfluzocin], the “percent Bodipy-positive cells” value under setting [2] stood at 28.94 ± 0.088%.
